The data set can be described thus: general procedure: Fmoc solid-phase peptide synthesis; CLEAR-Amide resin (100-200 mesh, 0.4-0.49 mmol/g); Rink-Amide MBHA resin (100-200 mesh, 0.66 mmol/g); HBTU/NMM (automated); DIC/HOBT (manual). As to conditions: whole synthesis.

Some peptides are written in HELM: one residue between dots, names in brackets for other building blocks, links after the first $.

With “SNQTDK (SNQTDK) FRVTQ LAPKAQIKE-NH2 (SNQTDKFRVTQLAPKAQIKE; branched lysine; C-terminal amide; Branched at LYS6 with a peptide of sequence SNQTDK and C terminal modified with NH2; Branched amino acid sequence SNQTDK attached to the Lys6 residue)”, the crude yield stood at 70%. Further, under “HPLC method 1”, the “final HPLC purity” value is on record as 95%.
SNTSESF-NH2 had a crude yield of 69%. Besides, the “final HPLC purity” value (HPLC method 2) is recorded as 94.4%.
FRVTQK(SNTSESF)FRVTQAhxLAPKAQIKE-NH2 had a crude yield of 70%. For the setting “HPLC method 1”, the “final HPLC purity” value is 95.2%.
As to “SNQTDK (SNQTDK) VLNWYRM LAPKAQIKE-NH2 (SNQTDKVLNWYRMLAPKAQIKE; branched lysine side chain peptide; C-terminal amide; Branched peptide Sequence with NH2 modified C terminal and branch amino acid sequence at Lys6 residue; branched amino acid sequence SNQTDK attached to the Lys6 residue)”, the crude yield came to 50%. Also, the “final HPLC purity” value (HPLC method 1) is given as 94%.
For “PEPTIDE1{S.N.T.S.E.S.F.[Lys-open].F.R.V.T.Q.L.A.P.K.A.Q.I.K.E.[am]}|PEPTIDE2{S.N.T.S.E.S.F}$PEPTIDE1,PEPTIDE2,8:R3-7:R2$$$V2.0” the same measures were 89% and 96.6%.
The like results for EDRSQPGQDCR-NH2 were, in that order, 74% and 94.4%.
“EKIQAKPAYWNLVK(KDTQNS)DTQNS (EKIQAKPAYWNLVKDTQNS; branched lysine side chain peptide; Branched peptide Sequence with NH2 modified C terminal and branch amino acid sequence attached to the Lys14 residue; branch amino acid sequence KDTQNS attached to the Lys14 residue; C terminal modified with NH2)” displayed a crude yield of 70%.
Take “FRVTQK(SNTSESF)FRVTQLAPKAQIKE-NH2 (FRVTQKFRVTQLAPKAQIKE; branched lysine; C-terminal amide; Branched at LYS6 with Seq ID 4 and C terminal modified with NH2; branched amino acid sequence, Seq ID 4 attached to the Lys6 residue; C terminal modified with NH2)”: the crude yield was 74%. Further, under “HPLC method 1”, the “final HPLC purity” value turned out to be 97.6%.
CGAISLAPKAQIKE-NH2: the “final HPLC purity” value (HPLC method 1, hydrocarbon staple, sequence written open) was 95.4%. This substance also had a crude yield (hydrocarbon staple, sequence written open) of 63%.
As to SNTSESFK(SNQTDK)FRVTQK(LAP)AQIKE-NH2, the crude yield stood at 65%. Further, where the note is “HPLC method 3”, the “final HPLC purity” value was 95.4%.
As to Ac-SNTSESF-NH2, the crude yield was 70%. Also, the “final HPLC purity” value (HPLC method 1) amounted to 96%.
For “SNQTDKLAAFPEDSQPGQD-NH2 (C-terminal amide; C terminal modified with NH2)” the same measures were 65% and 96%.
Regarding SNTSESFK(SNQTDK)FRVTQLAPKAQIKE-NH2, the crude yield came out at 70%. The “final HPLC purity” value (HPLC method 1) is recorded as 93%.

The values above are taken from patent publication US9783578B2 (AURIGENE DISCOVERY TECHNOLOGIES LIMITED, priority 2010, dated 2017).
